Results from PubChem BioAssay AID256 (DTP/NCI, 2004).
The list is a part of this screen's results and no random one: it gathers tests that were run many times, whatever their T/C, doses with no T/C, and many T/C values between a quarter and a half above the control. Further doses and runs are listed elsewhere. T/C gives the treated animals as a percentage of the vehicle group. Some entries give survivors of the animals treated and no T/C: the source files T/C as zero there, which appears to mark a toxic dose or a test without result, not a measured value. Some survivor counts are full or nearly so, which does not show that the dose was tolerated: the source hardly ever lists a survival T/C far under the control, and the zero likely stands for such cases as well. Survivors were counted at the toxicity check, usually on the fifth day, unless a day is given; later deaths do not show. Schedule codes are those of the source, read here as Q, the interval in days (D) or hours (H), X, the number of doses. Where survival is the endpoint, the PubChem record calls one and a half times the control and up active, and a quarter to a half above the control has no call in these data; cut-offs in other NCI protocols can differ. Counts like (3×) give the number of equal values in this list. Some entries hold several experiments; the values are given in rising order.

Test system: CD2F1 mice, L1210 leukemia ip, survival T/C
Assay: NCI In Vivo Anticancer Drug Screen. Data for tumor model L1210 Leukemia (intraperitoneal) in CD2F1 (CDF1) mice
Details: higher T/C = longer survival
In short: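 In this screen, transplantable tumors were grown in mice given either the compound or its vehicle. Results were expressed as the treated measurement relative to the control measurement.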

[1] = T/C endpoint: mean survival time, dose: 400.0 mg/kg/injection, schedule: Q04DX003 (ip), vehicle: saline with Tween-80
[2] = T/C endpoint: mean survival time, dose: 300.0 mg/kg/injection, schedule: Q01DX001 (ip), vehicle: other

In the case of `CN(C)CC#N`, the survivor count (T/C endpoint: mean survival time, dose: 100.0 mg/kg/injection, schedule: Q04DX003 (ip), vehicle: saline) is reported as 0 of 6, the survivor count (T/C endpoint: mean survival time, dose: 200.0 mg/kg/injection, schedule: Q04DX003 (ip), vehicle: saline) is reported as 0 of 6 and the survivor count (T/C endpoint: mean survival time, dose: 400.0 mg/kg/injection, schedule: Q04DX003 (ip), vehicle: saline) is reported as 0 of 6.

`[Cl][Pt+2][Cl].[NH-]c1ccc(Cl)cc1[NH-]` was tested, and the T/C (T/C endpoint: mean survival time, dose: 5.0 mg/kg/injection, schedule: Q01DX009 (ip), vehicle: saline with Tween-80) was 140 % of control, the T/C (T/C endpoint: mean survival time, dose: 10.0 mg/kg/injection, schedule: Q01DX009 (ip), vehicle: saline with Tween-80) was 140 % of control (2×) and the survivor count (T/C endpoint: mean survival time, dose: 40.0 mg/kg/injection, schedule: Q01DX009 (ip), vehicle: saline with Tween-80) was 8 of 8. For the same compound, the survivor count (T/C endpoint: mean survival time, dose: 80.0 mg/kg/injection, schedule: Q01DX009 (ip), vehicle: saline with Tween-80) was 7 of 8.

In the case of `NC(=O)/C=C/C(N)=O`, the survivor count (T/C endpoint: mean survival time, dose: 400.0 mg/kg/injection, schedule: Q01DX009 (ip), vehicle: saline with Tween-80) is reported as 0 of 6.

In the case of `NC(=S)NNc1ccccn1`, the survivor count (T/C endpoint: mean survival time, dose: 100.0 mg/kg/injection, schedule: Q04DX002 (ip), vehicle: saline) is reported as 0 of 3.

In the case of `CC1(Br)OC(=O)CC1Br` (configuration not stated), the survivor count (T/C endpoint: mean survival time, dose: 400.0 mg/kg/injection, schedule: Q04DX002 (ip), vehicle: saline with Tween-80) is reported as 0 of 3.

For `CO[C@@]12[C@@H]3N[C@@H]3CN1C1=C(C(=O)C(Nc3cccc(O)c3)=C(C)C1=O)[C@@H]2COC(N)=O`, the T/C (T/C endpoint: median survival time, dose: 1.5 mg/kg/injection, schedule: Q01DX001 (ip), vehicle: distilled water + Tween-80) was 135 % of control, the T/C (T/C endpoint: median survival time, dose: 3.0 mg/kg/injection, schedule: Q01DX001 (ip), vehicle: distilled water + Tween-80) was 139 % of control and the T/C (T/C endpoint: median survival time, dose: 3.0 mg/kg/injection, schedule: Q01DX001 (ip), vehicle: water) was 144 % of control. For the same compound, the T/C (T/C endpoint: median survival time, dose: 6.0 mg/kg/injection, schedule: Q01DX001 (ip), vehicle: distilled water + Tween-80) was 135 % of control, the T/C (T/C endpoint: median survival time, dose: 6.0 mg/kg/injection, schedule: Q01DX001 (ip), vehicle: water) was 138 and 147 % of control and the T/C (T/C endpoint: median survival time, dose: 12.0 mg/kg/injection, schedule: Q01DX001 (ip), vehicle: distilled water + Tween-80) was 139 % of control. For the same compound, the T/C (T/C endpoint: median survival time, dose: 12.0 mg/kg/injection, schedule: Q01DX001 (ip), vehicle: water) was 136 % of control and the survivor count (T/C endpoint: median survival time, dose: 24.0 mg/kg/injection, schedule: Q01DX001 (ip), vehicle: water) was 6 of 6.

For `N#Cc1nccnc1Cl`, the survivor count [1] was 5 of 6.

In the case of `Cc1cc(N(C)C)c(C)cc1N=Nc1cc[n+]([O-])cc1`, the survivor count (T/C endpoint: mean survival time, dose: 225.0 mg/kg/injection, schedule: Q04DX002 (ip), vehicle: saline with Tween-80) is reported as 1 of 3.

With `CCN(CC)CC#CCCCCN(CC)CC` the survivor count (T/C endpoint: mean survival time, dose: 200.0 mg/kg/injection, schedule: Q04DX003 (ip), vehicle: saline with Tween-80) was 2 of 6 and the survivor count [1] was 0 of 6.

For `CSC1=CC(=O)C=C(C)C1=O`, the survivor count (T/C endpoint: mean survival time, dose: 75.0 mg/kg/injection, schedule: Q01DX001 (ip), vehicle: other) was 1 of 6, the survivor count (T/C endpoint: mean survival time, dose: 150.0 mg/kg/injection, schedule: Q01DX001 (ip), vehicle: other) was 0 of 6 and the survivor count [2] was 0 of 6.

For `C[N+]1=C(c2ccccc2)CCC(C(C)(C)C)C1` (configuration not stated), the survivor count (T/C endpoint: mean survival time, dose: 300.0 mg/kg/injection, schedule: Q01DX001 (ip), vehicle: saline) was 2 of 6.

In the case of `CC(C)N1C(=O)N(Cl)C2C1N(Cl)C(=O)N2Cl` (configuration not stated), the survivor count (T/C endpoint: median survival time, dose: 50.0 mg/kg/injection, schedule: Q01DX009 (ip), vehicle: saline with Tween-80) is reported as 0 of 6, the survivor count (T/C endpoint: median survival time, dose: 100.0 mg/kg/injection, schedule: Q01DX009 (ip), vehicle: saline with Tween-80) is reported as 0 of 6 and the survivor count (T/C endpoint: median survival time, dose: 200.0 mg/kg/injection, schedule: Q01DX009 (ip), vehicle: saline with Tween-80) is reported as 0 of 6. For the same compound, the survivor count (T/C endpoint: median survival time, dose: 400.0 mg/kg/injection, schedule: Q01DX009 (ip), vehicle: saline with Tween-80) was 0 of 6.

For `COC(=O)C(Br)C1CCCCC1` (configuration not stated), the survivor count [1] was 3 of 6.

`FC(F)(F)/C([S-])=C(/[S-])C(F)(F)F.[Fe].[c-]1[c-][c-][cH-][c-]1` was tested, and the survivor count [2] was 2 of 6.
